# Reference: PubChem BioAssay AID330 (DTP/NCI, 2004)
# The list does not hold the whole screen: it gathers tests that were run many times, whatever their T/C, doses with no T/C, and many T/C values between a quarter and a half above the control. Further doses and runs are listed elsewhere. T/C gives the treated animals as a percentage of the vehicle group. Some entries give survivors of the animals treated and no T/C: the source files T/C as zero there, which appears to mark a toxic dose or a test without result, not a measured value. Some survivor counts are full or nearly so, which does not show that the dose was tolerated: the source hardly ever lists a survival T/C far under the control, and the zero likely stands for such cases as well. Counts of survivors are from the toxicity check (mostly the fifth day) where no day follows; animals may have died later. Schedule codes are those of the source, taken here to give the interval after Q, in days (D) or hours (H), and the number of doses after X. Some entries hold several experiments; their values stand side by side, smallest first. For survival time, the PubChem record calls one and a half times the control and up active, and a quarter to a half above the control has no call in these data; cut-offs in other NCI protocols can differ.
# Test system: P388 leukemia ip, CD2F1 mice, survival T/C
# Assay: NCI In Vivo Anticancer Drug Screen. Data for tumor model P388 Leukemia (intraperitoneal) in CD2F1 (CDF1) mice
# Conditions: T/C endpoint: median survival time, higher T/C = longer survival
# [1] = dose: 400.0 mg/kg/injection, schedule: Q01DX001 (ip), vehicle: saline with Tween-80
# [2] = dose: 50.0 mg/kg/injection, schedule: Q01DX005 (ip), vehicle: Klucel (hydroxypropylcellulose) (HPC)
# [3] = dose: 100.0 mg/kg/injection, schedule: Q01DX005 (ip), vehicle: Klucel (hydroxypropylcellulose) (HPC)
# [4] = dose: 200.0 mg/kg/injection, schedule: Q01DX005 (ip), vehicle: Klucel (hydroxypropylcellulose) (HPC)
# [5] = dose: 100.0 mg/kg/injection, schedule: Q01DX009 (ip), vehicle: saline with Tween-80
# [6] = dose: 200.0 mg/kg/injection, schedule: Q01DX009 (ip), vehicle: saline with Tween-80
# [7] = dose: 100.0 mg/kg/injection, schedule: Q01DX009 (ip), vehicle: Klucel (hydroxypropylcellulose) (HPC)
# [8] = dose: 200.0 mg/kg/injection, schedule: Q01DX009 (ip), vehicle: Klucel (hydroxypropylcellulose) (HPC)
# [9] = dose: 240.0 mg/kg/injection, schedule: Q01DX005 (ip), vehicle: Klucel (hydroxypropylcellulose) (HPC)
# [10] = dose: 100.0 mg/kg/injection, schedule: Q04DX003 (ip), vehicle: Klucel (hydroxypropylcellulose) (HPC)
smiles,measurement,setting,value
COc1ccc(C(=O)NCCN2CCN3Cc4[nH]c5ccccc5c4CC3C2)cc1 (configuration not stated),survivor count,"dose: 200.0 mg/kg/injection, schedule: Q01DX001 (ip), vehicle: saline with Tween-80",6 of 6
same,survivor count,[1],6 of 6
CCN(CC)CCCC(Nc1c2ccc(Cl)cc2nc2ccc(OC)cc12)c1cccc2ccccc12 (configuration not stated),survivor count,[2],0 of 5
same,survivor count,[3],0 of 5
same,survivor count,[4],0 of 5
CC1CN1C1=C(F)C(=O)C(N2CC2C)=C(F)C1=O (configuration not stated),survivor count,"dose: 6.25 mg/kg/injection, schedule: Q01DX009 (ip), vehicle: Klucel (hydroxypropylcellulose) (HPC)",3 of 6
same,survivor count,"dose: 12.5 mg/kg/injection, schedule: Q01DX009 (ip), vehicle: Klucel (hydroxypropylcellulose) (HPC)",0 of 6
same,survivor count,"dose: 25.0 mg/kg/injection, schedule: Q01DX009 (ip), vehicle: Klucel (hydroxypropylcellulose) (HPC)",0 of 6
C(=C/c1cc2ccc(C3=NCCN3)cc2o1)/c1cc2ccc(C3=NCCN3)cc2[nH]1,T/C,"dose: 25.0 mg/kg/injection, schedule: Q04DX003 (ip), vehicle: suspension in saline",139 % of control
same,survivor count,"dose: 200.0 mg/kg/injection, schedule: Q04DX003 (ip), vehicle: suspension in saline",3 of 6
same,survivor count,"dose: 400.0 mg/kg/injection, schedule: Q04DX003 (ip), vehicle: suspension in saline",0 of 6
COc1ccc2c(c1)C1CCN(C)CC1OC2=O (configuration not stated),survivor count,[5],3 of 6
same,survivor count,[6],1 of 6
O=C(Nc1ccc(N=C=S)cc1Cl)c1cc(Cl)cc(Cl)c1O,T/C,"dose: 50.0 mg/kg/injection, schedule: Q01DX009 (ip), vehicle: Klucel (hydroxypropylcellulose) (HPC)",131 % of control
same,T/C,[7],127 % of control
same,survivor count,[8],5 of 6 and 6 of 6
CC1CC[N-]C(CCC2CC(C)CC[N-]2)C1.CC1CC[N-]C(CCC2CC(C)CC[N-]2)C1.[Ni+2].[O-][Cl+3]([O-])([O-])O (configuration not stated),survivor count,"dose: 200.0 mg/kg/injection, schedule: Q01DX001 (ip), vehicle: saline",2 of 6
same,survivor count,"dose: 400.0 mg/kg/injection, schedule: Q01DX001 (ip), vehicle: saline",0 of 6
N=C(N)c1nc2ccccc2s1,survivor count,"dose: 50.0 mg/kg/injection, schedule: Q01DX009 (ip), vehicle: other",0 of 6
same,survivor count,"dose: 100.0 mg/kg/injection, schedule: Q01DX009 (ip), vehicle: other",1 of 6
same,survivor count,"dose: 200.0 mg/kg/injection, schedule: Q01DX009 (ip), vehicle: other",0 of 6
[C-]#[N+]C1CC2CCC1C2.[C-]#[N+]C1CC2CCC1C2.[C-]#[N+]C1CC2CCC1C2.[C-]#[N+]C1CC2CCC1C2.[C-]#[N+]C1CC2CCC1C2.[C-]#[N+]C1CC2CCC1C2.[Mn] (configuration not stated),T/C,"dose: 0.19 mg/kg/injection, schedule: Q01DX009 (ip), vehicle: saline with Tween-80",142 % of control
same,T/C,"dose: 0.38 mg/kg/injection, schedule: Q01DX009 (ip), vehicle: saline with Tween-80",131 % of control
same,survivor count,"dose: 1.5 mg/kg/injection, schedule: Q01DX009 (ip), vehicle: saline with Tween-80",4 of 6
same,survivor count,"dose: 3.0 mg/kg/injection, schedule: Q01DX009 (ip), vehicle: saline with Tween-80",0 of 6
same,survivor count,"dose: 6.0 mg/kg/injection, schedule: Q01DX009 (ip), vehicle: saline with Tween-80",0 of 6
same,survivor count,"dose: 6.25 mg/kg/injection, schedule: Q01DX009 (ip), vehicle: saline with Tween-80",0 of 6
same,survivor count,"dose: 12.5 mg/kg/injection, schedule: Q01DX009 (ip), vehicle: saline with Tween-80",0 of 6
same,survivor count,"dose: 25.0 mg/kg/injection, schedule: Q01DX009 (ip), vehicle: saline with Tween-80",0 of 6
same,survivor count,"dose: 50.0 mg/kg/injection, schedule: Q01DX009 (ip), vehicle: saline with Tween-80",0 of 6
same,survivor count,[5],0 of 6
same,survivor count,[6],0 of 6
CCN(CC)CCOCC1CC2C(C=C1C)C2(C)C (configuration not stated),survivor count,"dose: 200.0 mg/kg/injection, schedule: Q01DX005 (ip), vehicle: saline",0 of 6
Cc1cccc(-n2c(C)nc3c(c(C)c(C)n3-c3ccccc3)c2=N)c1,survivor count,[2],2 of 6
same,survivor count,[3],0 of 6
same,survivor count,[4],0 of 6
CCOC(=O)c1cnc(Sc2c([N+](=O)[O-])ncn2C)nc1N,survivor count,[7],6 of 6
same,survivor count,[8],6 of 6
CC1CN1P(=O)(N1CCCCCC1)N1CC1C (configuration not stated),T/C,"dose: 25.0 mg/kg/injection, schedule: Q01DX009 (ip), vehicle: saline",127 % of control
same,T/C,"dose: 44.0 mg/kg/injection, schedule: Q04DX003 (ip), vehicle: saline",133 % of control
same,T/C,"dose: 50.0 mg/kg/injection, schedule: Q04DX003 (ip), vehicle: saline",133 % of control
same,T/C,"dose: 66.0 mg/kg/injection, schedule: Q04DX003 (ip), vehicle: saline",141 % of control
same,survivor count,"dose: 100.0 mg/kg/injection, schedule: Q01DX009 (ip), vehicle: saline",6 of 6
same,survivor count,"dose: 150.0 mg/kg/injection, schedule: Q04DX003 (ip), vehicle: saline",6 of 6
CSc1ccc(N=C(N)N)cc1,survivor count,[6],2 of 6
CN(C)CCOCC(O)(c1ccccc1)c1ccccc1,survivor count,"dose: 200.0 mg/kg/injection, schedule: Q01DX009 (ip), vehicle: suspension in saline",4 of 6
COc1cc(C(NC(N)=O)c2cc3c(cc2OC(C)=O)OCO3)cc(OC)c1OC (configuration not stated),survivor count,[9],6 of 6
COc1cc(OC)c2c(=O)c3ccc([N+](=O)[O-])cc3n(C)c2c1,survivor count,[1],3 of 6
Clc1ccc(C2N(Cc3ccccc3)CCC3CCCCN32)cc1Cl (configuration not stated),survivor count,[6],6 of 6
Cc1ccc(NN=O)nc1,T/C,"dose: 3.12 mg/kg/injection, schedule: Q01DX009 (ip), vehicle: water",128 and 134 % of control
same,survivor count,"dose: 25.0 mg/kg/injection, schedule: Q01DX009 (ip), vehicle: water",3 of 6 and 5 of 6
Cc1cc(Nc2ccc3c(c2)OCO3)c2cc(C3CCCCC3)ccc2n1,survivor count,"dose: 240.0 mg/kg/injection, schedule: Q01DX005 (ip), vehicle: saline with Tween-80",6 of 6
CC1CCCCC12C(C#N)(C#N)C2(C#N)C#N (configuration not stated),survivor count,"dose: 50.0 mg/kg/injection, schedule: Q04DX003 (ip), vehicle: Klucel (hydroxypropylcellulose) (HPC)",3 of 6 and 6 of 6
same,survivor count,[10],2 of 6
same,survivor count,"dose: 200.0 mg/kg/injection, schedule: Q04DX003 (ip), vehicle: Klucel (hydroxypropylcellulose) (HPC)",0 of 6
same,survivor count,"dose: 400.0 mg/kg/injection, schedule: Q04DX003 (ip), vehicle: Klucel (hydroxypropylcellulose) (HPC)",0 of 6
COC(=O)Nc1cn2ccc(Sc3ccccc3)cc2n1,T/C,[8],127 and 132 % of control
same,T/C,"dose: 400.0 mg/kg/injection, schedule: Q01DX009 (ip), vehicle: Klucel (hydroxypropylcellulose) (HPC)",133 % of control
CCOC(=O)CNC(=O)Sc1ccc(C(C)(C)C)cc1C,T/C,"dose: 200.0 mg/kg/injection, schedule: Q01DX005 (ip), vehicle: saline + Tween-80 + alcohol",127 % of control
CC1=C(C(=O)Nc2cc(C)ccc2C)C(c2cccc([N+](=O)[O-])c2)C(C(=O)Nc2cc(C)ccc2C)=C(C)N1,survivor count,[9],6 of 6
CC(=O)Nc1ccc(/C=N/NC(=O)c2ccc(C)cc2)cc1,survivor count,[5],6 of 6
Nc1ccc2cc(S(=O)(=O)O)cc(O)c2c1N=Nc1ccc(NC(=O)c2ccc(C(=O)Nc3ccc(N=Nc4c(N)ccc5cc(S(=O)(=O)O)cc(O)c45)c(S(=O)(=O)O)c3)cc2)cc1S(=O)(=O)O,survivor count,"dose: 100.0 mg/kg/injection, schedule: Q01DX005 (ip), vehicle: saline with Tween-80",6 of 6
same,survivor count,"dose: 200.0 mg/kg/injection, schedule: Q01DX005 (ip), vehicle: saline with Tween-80",3 of 6
O=C(NC12CC3CC(CC(C3)C1)C2)OCCN1CCN(CCCN2c3ccccc3Sc3ccc(C(F)(F)F)cc32)CC1,survivor count,"dose: 200.0 mg/kg/injection, schedule: Q04DX002 (ip), vehicle: saline with Tween-80",6 of 6
same,survivor count,"dose: 400.0 mg/kg/injection, schedule: Q04DX002 (ip), vehicle: saline with Tween-80",2 of 6
N=c1c2ccccc2nc2n1CCCCCCC2,survivor count,[10],0 of 6
CC(=O)SCc1nc2ccccc2[nH]1,survivor count,[6],5 of 6
